Not every detail of the peptide structures is certain; ends, links or a residue may be inferred. Where no end group is shown, it is not given here.
Columns and labels:
[1] = tested on: CD4+ T-cells co-cultured with APC; assay: CD4+ T-cells of MOG35-55 immunized C57BL/6 mice co-cultured with APC, cytokine ELISA; assay type: cell-based; conditions: ADT21 0.1 μM, 100 μg/ml MOG, 48 h
[2] = tested on: splenocytes (Th1 and Th17 T-cells); assay: Cytokines from anti-CD3 stimulated splenocytes of ADT21 treated NOD mice; assay type: in vivo; conditions: splenocytes of 30 week old NOD treated mice, data not shown
[3] = tested on: insulin; assay: Serum insulin levels in APP/PS1 mice; assay type: in vivo; conditions: nasal 1.07 μg/mouse every two days for 4 months, vs control APP Tg mice
[4] = tested on: APP/PS1 mouse model; assay: Contextual fear conditioning in APP/PS1 mice; assay type: in vivo
[5] = tested on: CD4+ T-cells co-cultured with APC; assay: CD4+ T-cells of MOG35-55 immunized NOD mice co-cultured with NOD APC, cytokine ELISA; assay type: cell-based; conditions: MOG and ADT21, 48 hours
[6] = tested on: EAE; assay: EAE clinical score in NOD mice (MS animal model); assay type: in vivo; conditions: nasal 1.07 μg every other day from 18 days after EAE induction, vs PBS treated mice
[7] = tested on: amyloid plaque; assay: Congo Red staining of amyloid plaque in APP/PS1 brain sections; assay type: in vivo, mice; conditions: nasal 1.07 μg/mouse every two days for 4 months
[8] = tested on: splenocytes cultured with MOG35-55; assay: Nasal treatment of EAE induced C57BL/6 mice, splenocyte cytokine release by ELISA; assay type: in vivo; conditions: nasal 1.07 μg/mouse, vs control (PBS) mice

ITNPGSGGSSVLRYDDFHTD [ADT21]
IFN-γ secretion ([1]; FIG. 3A): reduces pro-inflammatory cytokine levels
IL-2 secretion ([1]; FIG. 3B): reduces pro-inflammatory cytokine levels
IL-6 secretion ([1]; FIG. 3C): reduces pro-inflammatory cytokine levels
levels of IFN-γ [2]: marked reduction
levels of IL-17 [2]: marked reduction
increase in the level of insulin in the serum [3]: about 700%
cognitive behavior (contextual fear conditioning) ([4]; 1.07 μg/mouse every other day for 4 months): improved cognitive behavior
time freezing ([4]; 6 months old APP/PS1 mice, vs placebo (PBS) or untreated): elevated
Th1 CD4+ T cell cytokine IFN-γ ([5]; FIG. 4A): significant reduction
APC IL-1γ pro-inflammatory cytokine ([5]; FIG. 4B): significant reduction
clinical score [6]: significantly reduced
reduction in amyloid plaque [7]: 65%
reduction in IFN-γ (Th1 cells) [8]: 79.6%
reduction in IL-6 [8]: 37.7%
reduction in IL-17 (Th17 cells) [8]: 66.1%
reduction in TNF-α [8]: 42.2%
